Laboratory results as given in article PMC8751737 (International journal of pharmaceutics, 2021).

Tests used:
A549 = assay: Antiproliferative activity, CellTiter-Glo assay; type: cell-based, human; details: read-out: IC50 (72 Hours) A549, 72 h incubation, triplicate
MCF-7 = assay: Antiproliferative activity, CellTiter-Glo assay; type: cell-based, human; details: read-out: IC50 (72 Hours) MCF-7, 72 h incubation, triplicate

**Q.** How did the IC50 (A549) turn out when COc1cccc2c1C(=O)c1c(O)c3c(c(O)c1C2=O)C[C@@](O)(C(=O)CO)C[C@@H]3O[C@H]1C[C@H](N)[C@H](O)[C@H](C)O1 [Free Dox, Doxorubicin] was run?
**A.** 490 ± 79 nM

**Q.** And the IC50 (MCF-7)?
**A.** 316 ± 165 nM
